Construct, isoform or probe ends are uncertain for at least one entry.
System: OsEME1-C (MBP removed by TEVp) (Oryza sativa L. japonica cv. KY131)
Assay: EMSA
Details: 20 uM protein, 1 mM Mg2+, 5 mM ATP, EMSA/cleavage: 25 mM Tris-HCl pH 7.5, 1 mM MgCl2, 1 mM DTT, 2.5 uM Cy5 substrate, 30 C, recombinant protein, protein details: MBP cleaved by TEVp

Chains of the proteins cited; added tags and fusions are not shown. Chains listed by the source or under a name are the forms on record and can include a tag or linker.
OsEME1-C (MBP removed by TEVp) (Oryza sativa L. japonica cv. KY131), one chain, as listed by the source: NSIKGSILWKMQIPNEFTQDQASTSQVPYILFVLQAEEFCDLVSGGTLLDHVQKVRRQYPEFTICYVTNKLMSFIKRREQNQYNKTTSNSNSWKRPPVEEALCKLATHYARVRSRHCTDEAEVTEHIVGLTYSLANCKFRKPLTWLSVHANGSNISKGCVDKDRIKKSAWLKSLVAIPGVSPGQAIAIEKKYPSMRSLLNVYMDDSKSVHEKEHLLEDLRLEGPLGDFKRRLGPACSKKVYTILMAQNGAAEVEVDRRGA

Sequence: CGTCGATGACATAGACTTCGGGGACTTCTTCCTGAGGCTGGAGGACGGTG / GAAGTCGGTGAAGATCTCGGCCGGGGTCCCCGAAGTCTATGTCATCGACG [OsGLK1-Y12]
- binding result (label: 5' Cy5 on GLK1 X1): binds

Sequence: GACGCTGCCGAATTCTGGCTTGCTAGGACATCTTTGCCCACGTTGACCCG / GCGATAGTCTCTAGACAGCATGTCCTAGCAAGCCAGAATTCGGCAGCGTC [Y12]
- binding result (also cleaved): binds

Sequence: GAAGAAGAAGGACGACGAGGAAAGGTCGTCGTCGTTGCCGGAGGAGAAAG / CTCCGTCGTCACCGCGCTCAGGACCCCTTTCCTCGTCGTCCTTCTTCTTC [OsGLK2-Y12]
- binding result (label: 5' Cy5 on GLK2 X1): binds
